For at least one entry, the source does not settle the construct or the ends of the probe.
Target: ERCC1 central domain (ERCC1 96-214 / 92-214) (Homo sapiens) (UniProt P07992)
Test: FP
Settings: CITED Tsodikov et al. 2005; direct titration of ERCC1 at 50 nM DNA, single-site approximation; purified recombinant protein; protein details: N-terminal His6; label: 5' 6-FAM; single-stranded DNA

Sequences of proteins named here, by UniProt entry; tags and fusion partners are left off. Residues count along the entry.
UniProt P07992, 96-214: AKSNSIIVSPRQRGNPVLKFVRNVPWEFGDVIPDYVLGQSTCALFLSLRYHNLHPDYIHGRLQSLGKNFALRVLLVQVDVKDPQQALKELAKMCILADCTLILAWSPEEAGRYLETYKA

For “CCGGTGGCCAGCGCTCGGCGTTTTTTTTTTTTTTTTTTTT [6FAM-labeled 40mer ssDNA]”, the Kd was 1.5 µM.
